To fix the notation:
B1: il2ra_site2_2erj_sap_20_mot_HHH_b1_06777_000000153_0001_1_20_H_._HHH_b1_00201_af2_0001_0000300003_0000001_0_0001 (protein)
chain: SSSSSDEYRELYELLNELMRLVEEGDEEEIERVAEEAREVAEKLQSEATKRVIEHLLRLYSSSSS
B2: il2ra_site1_1z92_normal_mot_HHH_b1_01245_000000029_0001_23_39_H_._HHH_b1_01554_af2_0001_0000200014_0000001_0_af2pred_0001_af2pred (protein)
chain: SSSSSSERDARIIVRMAVRAAELSEEQEEKLQELAEELVKRGYSFEEISRILDKIAAELHSSSSS
B3: il2ra_site1_3nfp_sap_7_mot_HHH_b1_00258_000000025_0001_42_56_H_._HHH_b2_02295_af2_0001_0000700036_0000001_0_0001_af2pred_0001_af2pred_swapped (protein)
chain: SSSSSAELAKEVDELYKEARKLLEEGDDEKVEELIRLMEEILEKRNDKAIERMIRIIKKALSSSS
B4: il2ra_site1_1z92_sap_23_mot_HHH_b1_04002_af2_000000251_0001_1_15_H_._HHH_b2_00568_0001_0000100008_0000001_0_0001_af2pred_dldesign_0_af2pred (protein)
chain: SMEKEARELLRHAPTPETLYNALKKLFSVNPDPEEKKAFADVCAAIARELGREDLVAATRRALLE
B5: il2ra_site2_2erj_sap_18_mot_HHH_b2_01457_af2_000000298_0001_23_40_H_._HHH_b1_06154_0001_0000100001_0000001_0_0001 (protein)
chain: SSSSSDELEEFIEELAEKLGLDEDAKRALEETLEHAKRLGVSEEEIKKFLEEWAKLVRGSSSSSS
B6: il2ra_site1_3nfp_normal_mot_HHH_b2_04366_af2_000000103_0001_1_19_H_._HHH_b1_00003_af2_0001_0000300013_0000001_0_af2pred_0001_af2pred (protein)
chain: SSSSDVEEFLEEIKEELREALEKGDARLADKIFREAVRELAKKGNPELAKELFEFLEELISSSSS
B7: il2ra_site2_2erj_sap_23_mot_HHH_b1_05749_af2_000000086_0001_23_39_H_._HHH_b2_05738_af2_0001_0000100008_0000001_0_0001 (protein)
chain: SSSSAYEYAARVTMRVIELAKEGDEEEAKRLLEEAEKYLEELGDEVALKYIELALEDLERNSSSS
B8: il2ra_site2_2erj_sap_28_mot_HHH_b1_03572_af2_000000164_0001_41_56_H_._HHH_b1_00072_0001_0000100006_0000001_0_0001_af2pred_0001_af2pred (protein)
chain: SSSSSSEAEELVERLVEELNLSEEEKELLEEAAKRLEEAGYDEELAEEILRLLVEALEKLSSSSS
B9: il2ra_site2_2erj_sap_23_mot_HHH_b1_06697_000000025_0001_41_54_H_._HHH_b2_07665_0001_0000100002_0000001_0_0001 (protein)
chain: SSSSDELEELQEELRELVKENDPHRAVEVVTEAFEIAREEDDPELHRIAWEMLRLLASLQSSSSS
B10: il2ra_site2_3nfp_normal_mot_HHH_b2_00444_000000178_0001_41_57_H_._HHH_b1_08207_0001_0001000029_0000001_0_af2pred_0001_af2pred (protein)
chain: SSSSDEELEVFALAVVIDLLEEYGLDDEQALRLSRLAWQLAEEGFSEEEIEEILRKVAEELSSSS
B11: il2ra_site1_3nfp_sap_14_mot_HHH_b1_07180_af2_000000260_0001_1_19_H_._HHH_b2_00258_0001_0000300036_0000001_0_0001 (protein)
chain: SSSSSEEADRIYELMRAMIEAQKRGDDELVEELLREVAELAEERGDERLLRQVQWALRALKSSSS
B12: il2ra_site1_2b5i_sap_15_mot_1dae16775e8f4074d71d019417416b97_0001_af2_000000275_0001_1_12_H_._HHH_b2_07869_0001_0000400013_0000001_1_0001_af2pred_0001_af2pred_1 (protein)
chain: SSSSTDVAREVFRLLEEADRLARNGNPEEAEKLLREAEELAEENGNRALLKFVRAALRALSSSSS
B13: il2ra_site2_3nfp_normal_mot_HHH_b1_05627_af2_000000038_0001_43_56_H_._HHH_b2_04930_0001_0000100001_0000001_0 (protein)
chain: SSSSSKAEEYLKVAVELLEELVEEGDEEAARRVTEVIELLAEALNDPELLEEARELLEELESSSS
B14: il2ra_site1_1z92_sap_21_mot_HHH_b1_01765_000000215_0001_19_35_H_._09051a5a5815e8c4a7a718313fa04930_0001_af2_0001_0000600053_0000001_0_0001_af2pred_0001_af2pred (protein)
chain: PEAAERDFERAREAGIPPEAVAKALLKSLRSEGIPPEEVEKIVREVLERLLGDPEEAEEVLERAS
B15: il2ra_site1_1z92_normal_mot_ems_4hM_4976_0002_000000023_0001_48_63_H_._e577cf9893892e11dfbc93bbc029d3b7_0001_0001_0000100007_0000001_0 (protein)
chain: PEERLRELAEELGIPPEELERALENLEREARIPPRNAKIFLKKILELVAEGNPAAEDMLEDLREN
B16: il2ra_site1_2b5i_sap_14_mot_ce5c0e0a9f20e077a206bde56d1879ec_0001_000000005_0001_35_49_H_._HHH_b1_04668_af2_0001_0000500013_0000001_1_0001_af2pred_0001_af2pred_ … (protein)
chain: SSSSSKELHELIRRANELAEKGDDEEAARLLEEAERIARELGSRAARKFIEAALRLLEEDRSSSS
B17: il2ra_site1_3nfp_normal_mot_HHH_b1_01417_af2_000000204_0001_1_19_H_._HHH_eva_0026_af2_0001_0000100002_0000001_0_af2pred_0001_af2pred (protein)
chain: SSDKEHRRLSRIVSKIAAELGLSVEVAKEALHLAFELLKQGISEEEAEKIVERWLEQAAEEQSSS
B18: il2ra_site1_3nfp_normal_mot_0eddeacbb14b769e73e254714f31e2f9_0001_af2_000000052_0001_37_51_H_._HHH_b2_02810_0002_0000200010_0000001_0 (protein)
chain: SSSSDEEVEREVERLLEEAKQIEDSREASKLLEEAWRIAAENKDQELADLIYRVMREIIKSSSSS

This is one part of the list.

This is an account of results in PMC10163288.

This test concerns the target il2ra, P01589. Briefly: yeast display titration.
Usually apparent Kd stands for the concentration giving half-maximal binding under the conditions of the assay. In the case of B1, the “apparent Kd” value was “inactive: no binding seen”. In the case of B2, the “apparent Kd” value was “inactive: no binding seen”.

On to B3, for which the “apparent Kd” value was “inactive: no binding seen”.

Consider B4, for which the “apparent Kd” value is “inactive: no binding seen”. On to B5, for which the “apparent Kd” value was “inactive: no binding seen”. With B6 the figure was inactive: > 0.619 µM; with B7, “inactive: no binding seen”; with B8, “inactive: no binding seen”. For B9, the “apparent Kd” value was “inactive: no binding seen”. With B10 the entry was “inactive: no binding seen”. In the case of B11 it was “inactive: no binding seen”; in that of B12, “inactive: no binding seen”. With B13 the figure was inactive: > 7.01 µM; with B14, “inactive: no binding seen”; with B15, “inactive: no binding seen”. For the molecule B16, the “apparent Kd” value is “inactive: no binding seen”. Consider B17, for which the “apparent Kd” value is “inactive: no binding seen”. In the case of B18 it was “inactive: no binding seen”.
